The values below come from the odorant receptor screen of Mainland et al. (2015).

“And” between values parts separate entries of the source, which are not always exact repeats. Identical values can stand only once. The list shows a part of the results. Each value is one well over the wells without odorant, computed here; the data are noisy.

Holding throughout (assay): odorant receptor activation (CRE luciferase / Renilla) (fold of no-odor wells); higher = more activation
Details in all cases: 100 µM

The subject of assay [1] is OR51A2 clone 1577.
Assay [2] concerns OR51A4 G45C/L227P/R267G clone 1166.
The test system of assay [3] is OR51B2 clone 1551.
Assay [4] concerns OR51B4 V36I/M147T clone 1552.
Assay [5] concerns OR51B5 clone 1553.
Assay [6] has as its system OR51B6 clone 1554.
Assay [7] deals with OR51D1 clone 1206.
The test system of assay [8] is OR51E1 S11N clone 1532.
For assay [9], the system named is OR51E1 clone 1129.
Assay [10] relates to OR51E2 clone 1205.
Assay [11] deals with OR51F2 clone 1330.
Assay [12] has as its system OR51G1 clone 1165.
Assay [13] has as its system OR51G2 clone 1199.
In assay [14] the test system is OR51H1 clone 1187.
In assay [15] the test system is OR51I1 clone 1555.
Assay [16] relates to OR51I2 clone 1133.
The subject of assay [17] is OR51J1 R75H clone 1698.
Assay [18] concerns OR51L1 I281M clone 1535.
The subject of assay [19] is OR51L1 T196I/A207V clone 1533.
Assay [20] relates to OR51L1 clone 1183.

On to `CC(C)C=O` [isobutyraldehyde], for which the odorant receptor activation in assay [1] came to 0.726; in assay [2], 1.08; in assay [3], 0.741; in [4] it was 0.828; in assay [5], 0.902; in assay [6], 0.882. Also, the odorant receptor activation in [7] was 0.99; in assay [8] it was 0.85 and 1.08; in [9], 1.11; in assay [10], 1.06; in assay [11] it was 0.905 and 0.869; in [12], 0.788. The odorant receptor activation was 1.13 in assay [13]; 0.873 in [14]; 0.843 in assay [15]; 0.899 in assay [16]; 0.87 in assay [17]; 0.869 and 0.953 in assay [18]. Further, the odorant receptor activation is 1.32 and 0.846 in [19]; 0.783 in assay [20].

On to `O=C1CCCCC1` [Cyclohexanone], for which the odorant receptor activation is 0.597 in assay [2]; 0.878 in assay [7]; 0.842 and 1.04 in assay [8]; 0.886 in [9]; 0.847 in assay [10]; 0.7 in assay [11]. Besides, the odorant receptor activation was 0.743 in assay [12]; 0.596 in assay [13]; 0.87 in [14]; 0.765 in [16]; 0.965 and 0.818 in assay [18]; 0.912 and 1.05 in assay [19]. In addition, the odorant receptor activation in [20] turned out to be 0.97.

As for `CC12C=CCC1C1CCC3=CC(=O)CCC3(C)C1CC2` (configuration not stated) [androstadienone], the odorant receptor activation in assay [2] is 0.9; in [7], 0.694; in assay [8], 0.718 and 1.37; in assay [9], 0.9; in [10], 1.17; in assay [11] it was 0.384 and 1.05. For the same compound, the odorant receptor activation is 0.719 in assay [12]; 1.11 in assay [13]; 0.837 in assay [14]; 0.769 in assay [16]; 0.805 and 1.34 in assay [18]; 1.6 and 1.31 in assay [19]. This compound also had an odorant receptor activation in assay [20] of 0.599.

`CCCCCC(=O)O` [caproic acid]: the odorant receptor activation in [1] is 0.766; in [2], 1.05; in assay [3] it was 1.07; in assay [4], 1.69; in assay [5] it was 0.666; in [6], 0.89. For the same compound, the odorant receptor activation came to 1.04 in [7]; 1.69 in [8]; 1.19 in assay [9]; 1.06 in assay [10]; 0.778 in [11]; 0.822 in assay [12]. Moreover, the odorant receptor activation in assay [13] came to 0.854; in assay [14], 0.928; in [15] it was 1.01; in assay [16], 1.3; in assay [17], 0.891; in assay [18], 1.85. For the same compound, the odorant receptor activation was determined as 2.17 in [19] and 1.45 in assay [20].

For the compound `c1ccc(Oc2ccccc2)cc1` [diphenyl ether], the odorant receptor activation in assay [1] was determined as 0.915; in assay [2] it was 0.865; in [3], 0.902; in assay [4], 0.945; in assay [5] it was 0.882; in assay [6] it was 1.14. Also, the odorant receptor activation in assay [7] is 0.842; in assay [8] it was 1.22; in assay [9], 1; in assay [10], 0.922; in assay [11], 1.05; in assay [12], 1.03. The odorant receptor activation in assay [13] worked out at 1.13; in [14], 0.941; in [15] it was 0.771; in [16], 0.846; in [17] it was 0.794; in [18], 1.18. In addition, the odorant receptor activation in assay [19] is 1.4; in assay [20] it was 0.828.

Take `CC(=O)OC(C)(C)C1CC=C(C)CC1` (configuration not stated) [terpinyl acetate]: the odorant receptor activation in [1] stood at 0.776; in assay [2] it was 1.22; in assay [3] it was 0.959; in [4] it was 1.06; in assay [5] it was 1.06; in assay [6], 2.03. Besides, the odorant receptor activation in assay [7] is 1.32; in [8], 1.03; in assay [9] it was 1.23; in assay [10], 0.92; in assay [11], 0.775; in assay [12], 1.22. The odorant receptor activation worked out at 1.28 in assay [13]; 1.2 in [14]; 5.58 in assay [15]; 1.14 in assay [16]; 1.02 in assay [17]; 1.17 in assay [18]. Also, the odorant receptor activation in [19] came out at 0.896; in assay [20], 1.18.

Take `O=CCc1ccccc1` [phenyl acetaldehyde]: the odorant receptor activation amounted to 1.93 in assay [1]; 1.25 in assay [2]; 1.14 in assay [3]; 0.895 in assay [4]; 1.24 in [5]; 1.4 in [6]. The odorant receptor activation in assay [7] was found to be 1.36; in assay [8], 0.738; in assay [9], 0.794; in assay [10], 0.695; in assay [11], 0.774; in assay [12], 0.95. Moreover, the odorant receptor activation in [13] amounted to 0.896; in [14], 1.51; in [15] it was 1.53; in assay [16], 1.02; in assay [17], 1.27; in assay [18], 4.92. For the same compound, the odorant receptor activation in assay [19] is 2.57; in [20], 1.94.

In the case of `CC(C)(O)CCCC1=CCC(C=O)CC1` (configuration not stated) [lyral], the odorant receptor activation in [1] was 1; in [3] it was 0.962; in [4] it was 1.09; in [5], 1.12; in [6], 2.08; in assay [15], 5.88. For the same compound, the odorant receptor activation in [17] is 1.

In the case of `CC=Cc1ccc(O)c(OC)c1` [isoeugenol], the odorant receptor activation in [1] turned out to be 3.2; in [2], 0.964; in [3], 3.11; in [4] it was 4.04; in assay [5], 5.33; in assay [6], 0.922. The odorant receptor activation in assay [7] is 0.827; in [8], 0.901 and 1.36; in [9], 1.05; in assay [10], 1.17; in assay [11] it was 1.04 and 1.57; in assay [12], 0.963. Moreover, the odorant receptor activation in assay [13] was 0.926; in assay [14] it was 1.15; in assay [15] it was 0.774; in assay [16], 0.988; in [17] it was 3.31; in [18] it was 1.14 and 1.62. In addition, the odorant receptor activation in assay [19] was 1.54 and 1.16; in assay [20], 0.903.

In the case of `CC12C=CCC1C1CCC3CC(=O)CCC3(C)C1CC2` (configuration not stated) [androstenone], the odorant receptor activation in assay [2] stood at 5.76; in [7], 6.49; in assay [8], 1.07; in assay [9], 1.11; in [10], 2.77; in [11] it was 0.947. Moreover, the odorant receptor activation in assay [12] turned out to be 8.34; in [13], 6.97; in [14], 5.67; in assay [16] it was 6.36; in assay [18], 0.95; in [19] it was 1.22. In addition, the odorant receptor activation in assay [20] came to 2.35.

Consider `CC1COCc2cc3c(cc21)C(C)(C)C(C)C3(C)C` (configuration not stated) [galaxolide], for which the odorant receptor activation in [2] was 0.796; in assay [3], 0.269 and 0.76; in [4], 0.986 and 1.46; in assay [5] it was 1.04 and 1.14; in assay [7], 0.595; in [8], 1.04 and 1.34. The odorant receptor activation was 0.806 in assay [9]; 1.06 in assay [10]; 0.91 in assay [12]; 0.94 in [13]; 0.819 in assay [14]; 0.877 in assay [16]. The odorant receptor activation in assay [19] is 1.84 and 1.67; in [20], 0.762.

As to `CCCCCCC=O` [heptaldehyde], the odorant receptor activation was 0.68 in assay [1]; 0.737 in assay [3]; 0.954 in assay [4]; 0.786 in assay [5]; 0.629 in [6]; 0.554 and 0.746 in assay [7]. For the same compound, the odorant receptor activation in assay [9] was 0.587 and 1.05; in assay [10], 0.545 and 1.17; in assay [11] it was 0.446 and 0.639 and 1.1; in assay [13] it was 0.309 and 0.915; in [14] it was 0.339 and 0.75; in [15], 0.685. Further, the odorant receptor activation in assay [17] is 0.933; in [20] it was 0.556 and 0.92.

With `CCCCCCCOC(C)=O` [heptyl acetate], the odorant receptor activation in [1] came to 0.859; in [2], 0.869; in assay [3], 0.656; in [4] it was 0.861; in assay [5], 0.698; in [6], 0.719. For the same compound, the odorant receptor activation is 1.04 in [7]; 0.887 and 1.28 in assay [8]; 1.18 in assay [9]; 1.24 in assay [10]; 0.804 in assay [12]; 0.939 in assay [13]. The odorant receptor activation was 0.882 in assay [14]; 0.671 in assay [15]; 1.01 in assay [16]; 0.761 in [17]; 0.837 and 1.23 in assay [18]; 1.12 and 1.01 in assay [19]. Also, the odorant receptor activation in [20] amounted to 0.687.

As for `C=CCc1ccc(O)c(OC)c1` [eugenol], the odorant receptor activation in [1] was 1.35; in assay [2], 3.27 and 1.37; in assay [3], 1.34; in assay [4], 1.31; in assay [5] it was 1.17; in assay [6], 1.88. In addition, the odorant receptor activation in [7] was 3.15 and 1.29; in assay [8], 1.73 and 1.04 and 1.43; in assay [9], 2.11 and 1.31; in assay [10], 1.52 and 1.29; in assay [11], 1.56 and 1.57; in [12] it was 3.06 and 1.65. Besides, the odorant receptor activation is 1.47 and 1.32 in [13]; 2.62 and 1.22 in assay [14]; 1.15 in assay [15]; 1.05 in assay [17]; 1.18 and 1.06 and 1.42 in assay [18]; 1.39 and 0.858 and 1.71 in assay [19]. In [20], the odorant receptor activation was 2.12 and 1.28.

As to `COC(=O)c1ccccc1O` [methyl salicylate], the odorant receptor activation stood at 0.67 in assay [1]; 0.891 in assay [2]; 0.771 in assay [3]; 0.819 in [4]; 0.839 in assay [5]; 0.923 in assay [6]. Besides, the odorant receptor activation was found to be 0.705 in assay [7]; 0.973 in assay [8]; 1.1 in assay [9]; 0.96 in [10]; 0.826 in assay [11]; 0.986 in assay [12]. The odorant receptor activation in assay [13] was determined as 1.02; in assay [14] it was 0.743; in [15], 1.06; in assay [16] it was 0.834; in assay [17] it was 0.807; in [18] it was 1.01. Further, the odorant receptor activation was found to be 0.89 in [19] and 1.04 in [20].
